Laboratory results taken from PubChem BioAssay AID1347423 (Functional Genomics Laboratory (NCATS/FGL), 2020).
Hit rate of the full screen: of about 52,000 sequences, about 210 (0.4%) were called active.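 How the source made its calls: active means gene whose silencing raises cell survival under the drug, median off-target-corrected z-score across its silencing RNAs 2 or more; inactive means the rest.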 This is one part of the list.

experiment: Resistance to Poly (ADP-Ribose) Polymerase inhibitor: Gene Identification via Genome-wide siRNA Screen; conditions: mouse BRCA2 R2336H ES cells, olaparib, CellTiter-Glo viability; stronger effect = higher value
How it was run: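 Mouse BRCA2 R2336H ES cells were reverse-transfected with siRNA (20 nM final), treated at 48 h with 500 nM olaparib, and read by CellTiter-Glo after 72 h. Scores: MAD-based z per siRNA, median per gene, seed off-target correction.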

Sequence | z-score
GGAUAUACACAACAGGCACTT against Wbp5 | inactive: 0.204
GGAUCAAGAAACCAGACUATT against Mrpl23 | inactive: -2.16
GGCAUCAAAGACAAUACAATT against V1rc6 | inactive: -0.854
GGAGCUGAGGAGAAAGACATT against CRAD-L | inactive: -0.541
GCUCACCCUAUUUGCUGCCTT against Kcnj15 | inactive: 0.763
GGCUGCUAAUUGGAUUUUUTT against Ccnj | inactive: 0.246
GGGCUACAUGCCAUAUUUATT against Swap70 | inactive: -0.783
GGAAUUCCCAUAAAUCAGUTT against BC004012 | inactive: -1.05
GCUCUCUUGUGCUCCAACATT against Olfr531 | inactive: -1.01
CCUGCUUGCCAACACCAUATT against Slc39a13 | inactive: 0.395
CGGUGCACAACGUACCAAUTT against Npn3 | inactive: -0.555
GGUCGAAUGACUCAUCUUATT against Hs3st3a | inactive: 0.926
CGAGGAUGCCCUAAGGGUUTT against Lrrtm3 | inactive: 0.0169
CUACGAGCCACUUCUGAGATT against Krt2-25 | inactive: -0.587
GGAGGAAAACAAACCACAGTT against Tpbpa | inactive: -0.317
GCCCUUGUUACAGAUUCUCTT against V1rd17 | inactive: 0.00518
GGUGCAAUUAUUUGAUCAUTT against Ptprb | inactive: 1.12
GCUUAUAAUGCCAUUACUUTT against Rad21 | inactive: -3.44
GGAAGACGGCAACUAUCCATT against Cyp2c50 | inactive: 0.192
GCUACUGCAGUAUACAUUGTT against Olfr869 | inactive: 1.15
GGGAAAGAGAAAUUUAAAGTT against Kcne4 | inactive: 2.17
GGUUCAUCAAACUUGCUUGTT against Olfr1312 | inactive: -0.0246
GGACUAUCCAGGAAUCGUGTT against Sdbcag84 | inactive: 0.945
CCAACAUCGAGCUAGCCACTT against Psma5 | inactive: -2.4
GGCUCUACAUUCCAGAGGUTT against Slc35c2 | inactive: 0.143
GCCCGUGUGCCCAAGAAAATT against Pde6d | inactive: 0.785

Sequence | z-score
GGAGGAAUUCAUUAGAAACTT against Psmc1 | inactive: -2.23
GGUGGACCUAGGUAACAUGTT against Cyp2d9 | inactive: -1.55
GGCACUUCAACAGCAGUUATT against 5830418K08Rik | inactive: 1.48
GGACCUACAUAACAAGCUUTT against BC051244 | inactive: -1.14
GGGAAAGUGACUCCUGCUATT against 3110037I16Rik | inactive: -0.265
CCCAAAGGUCUAAUGUAAATT against Prok2 | inactive: -0.399
GGAUGAAAGCCAUUAAGUUTT against T2bp | inactive: -0.817
GGUCAUUCAUAAAGAUUGATT against Kcnma1 | inactive: 1.27
CCCUGGCUGAGUGCUUUGUTT against Olfr199 | inactive: -0.39
CGGUGUUAAAUCCAUGAGUTT against 6430706D22Rik | inactive: 0.961
GGAGCUACGAGGAAUUGGUTT against Wdr9 | inactive: -0.134
CCAAGAAUCAAGCUGUGAATT against Arpc5l | inactive: -0.185
GGAUUUUUCCAUAAAAACCTT against B3galt3 | inactive: 0.22
GCUUUACGGUCAAUUAGCCTT against Nr2e1 | inactive: 0.915
GGUGGUUGAUCUGCUAAGGTT against 2810046L04Rik | inactive: 0.503
CCCUCACAUUCGUCUACCUTT against Gpr24 | inactive: 0.75
GGUGGAUGUGUCAGAAUACTT against Alox15 | inactive: -1.6
GCACAAGGUUCAAAAAGGCTT against F630043A04Rik | inactive: -0.729
UAGUCAUCUUCAUUCUCCUTT against Olfr1251 | inactive: -0.542
GGUGGUAAAUCGAAUUGUUTT against 2500001K11Rik | inactive: 0.385
GGAAAAGGUCAUUAUCAUUTT against B230358A15Rik | inactive: 1
GGUAAAUCAUGUUUACUCUTT against 2610034H20Rik | inactive: -0.861
GCAUAACAUGCUCUUCCAUTT against Mtmr1 | inactive: -0.365
GCAUAAUAAGCCAAUUCUGTT against Crsp6 | inactive: -0.242
GGGAUUCUCCAAAAGGAAGTT against Arhgap6 | inactive: 1.13
GCCUCGGGUAGUGAAGUCUTT against Zc3hdc3 | inactive: 0.973

Some of the entries above in a different format:
Sequence,z-score
GGUGGAUGUGUCAGAAUACTT against Alox15,inactive: -1.6
GCACAAGGUUCAAAAAGGCTT against F630043A04Rik,inactive: -0.729
UAGUCAUCUUCAUUCUCCUTT against Olfr1251,inactive: -0.542

Part of the list above, field by field:
GGUGGACCUAGGUAACAUGTT against Cyp2d9
  z-score: inactive: -1.55
GGAUGAAAGCCAUUAAGUUTT against T2bp
  z-score: inactive: -0.817
GCAUAAUAAGCCAAUUCUGTT against Crsp6
  z-score: inactive: -0.242

Further results follow:

Sequence | z-score
GGAACAAGCUGUCUUAGAGTT against Olfr157 | inactive: 0.499
GGAAUGGUUUGGUGAGUUUTT against Pramel1 | inactive: 1.35
GUCGCUCUUCUAAAACUUUTT against 1110003E08Rik | inactive: 0.927
GGUAGACUUCAUCCUAGGCTT against Olfr62 | inactive: 0.519
GCUUGGAAGGGACUUCAAUTT against Trp73 | inactive: 0.336
GGAUAAUGGUAUCUACUUCTT against Cd79b | inactive: -0.408
GGAGUGAGACAAUUCUCACTT against Sprr2k | inactive: 0.0887
GCGUGGUCUUAACUGCUCATT against Zfp406 | inactive: -2.88
GCAAGUAGAAACCCUUAAUTT against 4933425F03Rik | inactive: -1.65
GGUUGAUGAUAGCUCUGAATT against Opn1mw | inactive: -1.5
GGUACAAAGCCAUUGUACGTT against Grpr | inactive: 0.188
GGUCUUUCCAAUGUUCACATT against Nos1 | inactive: -0.182
GGUGAUUCGUCAGAAGCUGTT against Gpr84 | inactive: 0.504
CCAUGAGUUAGUGUUCGGUTT against Blmh | inactive: 1.1
GCCUGACAGAAUUAUUUGCTT against Trnt1 | inactive: -0.16
GGAAGUGAAUAUUGAGUUUTT against Bccip | inactive: -0.957
GGCUACAAAUCCAACUAUCTT against 4930579J09Rik | inactive: -0.707
GAUCUUCCUGACAGUGGUGTT against Psors1c2 | inactive: -0.37
CGAGAAGGAUAUAAUUGUUTT against AW545966 | inactive: -0.545
GGAAAAAGACCAUCUGUGGTT against Plk3 | inactive: -0.871
CCGUUACAAACCAAGACCUTT against Flt3 | inactive: 0.564
GGAUUUUUGUGCAGAGUUATT against C630028N24Rik | inactive: 1.31
CGAUGUAACAAAUGAGAUUTT against 1700034P14Rik | inactive: -1.23
GGUAAUUGGUAGAACAGUUTT against Olfr837 | inactive: -1.05
GGACUCACCCUGAGAGAUUTT against Abca4 | inactive: -1.14
GGAGUGUAAUCCUCCAUCATT against 0710007A14Rik | inactive: -0.0452

Sequence | z-score
GGGUCAUGUGAGCCAAUUUTT against Tcf20 | inactive: -0.628
GGACCUUUCAUCAACCCAUTT against Olfr676 | inactive: 1
GGAAACCCAAUAUCAAACUTT against Rnf138 | inactive: -0.324
GGUGACCCAGUUGCUGAAUTT against 2310047C17Rik | inactive: 0.198
GCUCUUUUUAACACUCUUATT against Bace1 | inactive: -0.404
GGUGUGAUGCAUCAAGUCATT against Trip12 | inactive: -0.474
CCACCAUUUAUAUUUGGUUTT against Tmem20 | inactive: 0.51
GCGUGAAGGAGCACAGAUUTT against 4933409K07Rik | inactive: -0.899
GGUGGACUUAUAUGGUUUUTT against Siat4a | inactive: 1.46
GGGAUGAGUUCUUGUAAAUTT against Unc50 | inactive: -0.512
GGAAAUUACAGAGACAAUUTT against Rbm3 | inactive: 0.0684
GCAUUCCUUUCCAAAAGGATT against Rpl24 | inactive: -2.91
GGUCCUGAAAAUCGCUCAGTT against Ctrb1 | inactive: 2.06
GGAGAAAGCAAAAACUAUATT against D11Moh35 | inactive: -0.442
GCCUAUGAUCUGGUUAGACTT against D5Ertd606e | inactive: 2.74
GGAAGUGAGUUUUUCAGCUTT against Bcl6b | inactive: 3.03
GGAAAGAAACUAAGGAAAATT against Arhgap15 | inactive: 1.33
GGCUGUCAUCUGGACAGAUTT against Slc5a6 | inactive: 2.31
GUACAACUAGACAUUAUGCTT against Hist3h2bb | inactive: 1.17
CCAGGGACAAGAUUUAUCUTT against Pcdhgb4 | inactive: -1.32
CCCUGCUUUCGGAAUUACATT against C030016D13Rik | inactive: -0.592
GGCCAUUAGAAGCAAGAUUTT against 9030611N15Rik | inactive: -1.29
CCUGCUAUACAUUGAACCCTT against Lhcgr | inactive: 0.0786
GGGAAAGAGAUACAAUGACTT against Prlpk | inactive: -0.962
GGGCUUUUAUAACAAAUGUTT against 3110005P07Rik | inactive: 0.486
GGGUUCGAGGAAAAGGAAGTT against BC021611 | inactive: -0.851
